{"sequences": {"note": "Protein sequences, listed by entry. Tags and fused reporters are not part of them. Lines headed by an entry give the natural chain unless they say otherwise; changes in a name come on top.", "UniProt Q8CIR4": "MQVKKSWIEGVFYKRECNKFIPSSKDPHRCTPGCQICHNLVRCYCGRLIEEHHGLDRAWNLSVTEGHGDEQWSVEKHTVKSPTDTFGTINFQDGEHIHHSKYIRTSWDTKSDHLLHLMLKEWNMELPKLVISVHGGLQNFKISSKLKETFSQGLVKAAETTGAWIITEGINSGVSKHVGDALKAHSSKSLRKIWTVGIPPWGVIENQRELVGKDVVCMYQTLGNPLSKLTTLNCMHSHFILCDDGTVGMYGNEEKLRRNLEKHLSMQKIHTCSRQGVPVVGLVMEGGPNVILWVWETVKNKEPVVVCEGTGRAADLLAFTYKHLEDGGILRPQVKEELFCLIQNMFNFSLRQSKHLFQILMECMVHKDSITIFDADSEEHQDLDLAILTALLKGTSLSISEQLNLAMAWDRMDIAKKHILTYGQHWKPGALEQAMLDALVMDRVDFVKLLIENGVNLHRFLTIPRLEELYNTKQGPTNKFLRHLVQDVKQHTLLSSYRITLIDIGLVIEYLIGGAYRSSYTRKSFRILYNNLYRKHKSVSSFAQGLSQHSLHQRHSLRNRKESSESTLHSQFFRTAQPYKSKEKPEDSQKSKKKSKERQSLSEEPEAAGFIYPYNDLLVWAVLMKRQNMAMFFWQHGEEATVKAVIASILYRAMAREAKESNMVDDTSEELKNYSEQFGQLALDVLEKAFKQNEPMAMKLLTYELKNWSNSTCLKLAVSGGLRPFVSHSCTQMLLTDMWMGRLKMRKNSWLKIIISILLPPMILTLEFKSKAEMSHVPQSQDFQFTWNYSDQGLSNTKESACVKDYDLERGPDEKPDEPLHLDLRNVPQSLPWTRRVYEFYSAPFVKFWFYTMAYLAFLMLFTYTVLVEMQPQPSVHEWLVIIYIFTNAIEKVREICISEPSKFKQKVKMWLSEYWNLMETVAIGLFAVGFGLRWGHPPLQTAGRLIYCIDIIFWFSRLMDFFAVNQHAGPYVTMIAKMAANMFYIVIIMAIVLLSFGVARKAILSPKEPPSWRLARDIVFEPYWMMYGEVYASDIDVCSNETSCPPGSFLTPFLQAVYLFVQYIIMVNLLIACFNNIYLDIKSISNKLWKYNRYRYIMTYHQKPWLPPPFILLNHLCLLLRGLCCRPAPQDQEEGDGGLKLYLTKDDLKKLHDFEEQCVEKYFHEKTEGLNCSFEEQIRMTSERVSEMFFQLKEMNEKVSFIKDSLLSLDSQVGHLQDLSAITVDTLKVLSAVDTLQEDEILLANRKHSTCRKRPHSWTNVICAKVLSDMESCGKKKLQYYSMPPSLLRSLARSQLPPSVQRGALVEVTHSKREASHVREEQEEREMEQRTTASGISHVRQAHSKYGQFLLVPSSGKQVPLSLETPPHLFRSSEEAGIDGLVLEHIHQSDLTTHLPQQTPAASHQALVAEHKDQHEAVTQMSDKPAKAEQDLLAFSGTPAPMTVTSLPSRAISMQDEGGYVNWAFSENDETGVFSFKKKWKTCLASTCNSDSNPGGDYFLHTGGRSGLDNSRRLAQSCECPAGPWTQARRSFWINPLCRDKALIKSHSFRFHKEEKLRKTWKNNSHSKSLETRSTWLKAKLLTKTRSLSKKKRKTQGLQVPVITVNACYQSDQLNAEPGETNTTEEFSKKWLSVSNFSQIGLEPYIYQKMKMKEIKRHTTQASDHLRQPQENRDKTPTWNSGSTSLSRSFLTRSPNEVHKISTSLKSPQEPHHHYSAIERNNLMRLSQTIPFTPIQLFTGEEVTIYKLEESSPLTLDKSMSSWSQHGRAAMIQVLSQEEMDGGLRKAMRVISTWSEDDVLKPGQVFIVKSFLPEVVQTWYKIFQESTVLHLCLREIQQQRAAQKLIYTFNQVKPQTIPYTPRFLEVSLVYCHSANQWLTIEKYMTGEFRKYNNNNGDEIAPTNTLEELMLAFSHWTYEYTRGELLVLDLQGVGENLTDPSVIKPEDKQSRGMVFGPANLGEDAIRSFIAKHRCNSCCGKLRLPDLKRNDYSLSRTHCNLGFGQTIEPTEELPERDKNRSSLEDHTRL", "UniProt Q923J1": "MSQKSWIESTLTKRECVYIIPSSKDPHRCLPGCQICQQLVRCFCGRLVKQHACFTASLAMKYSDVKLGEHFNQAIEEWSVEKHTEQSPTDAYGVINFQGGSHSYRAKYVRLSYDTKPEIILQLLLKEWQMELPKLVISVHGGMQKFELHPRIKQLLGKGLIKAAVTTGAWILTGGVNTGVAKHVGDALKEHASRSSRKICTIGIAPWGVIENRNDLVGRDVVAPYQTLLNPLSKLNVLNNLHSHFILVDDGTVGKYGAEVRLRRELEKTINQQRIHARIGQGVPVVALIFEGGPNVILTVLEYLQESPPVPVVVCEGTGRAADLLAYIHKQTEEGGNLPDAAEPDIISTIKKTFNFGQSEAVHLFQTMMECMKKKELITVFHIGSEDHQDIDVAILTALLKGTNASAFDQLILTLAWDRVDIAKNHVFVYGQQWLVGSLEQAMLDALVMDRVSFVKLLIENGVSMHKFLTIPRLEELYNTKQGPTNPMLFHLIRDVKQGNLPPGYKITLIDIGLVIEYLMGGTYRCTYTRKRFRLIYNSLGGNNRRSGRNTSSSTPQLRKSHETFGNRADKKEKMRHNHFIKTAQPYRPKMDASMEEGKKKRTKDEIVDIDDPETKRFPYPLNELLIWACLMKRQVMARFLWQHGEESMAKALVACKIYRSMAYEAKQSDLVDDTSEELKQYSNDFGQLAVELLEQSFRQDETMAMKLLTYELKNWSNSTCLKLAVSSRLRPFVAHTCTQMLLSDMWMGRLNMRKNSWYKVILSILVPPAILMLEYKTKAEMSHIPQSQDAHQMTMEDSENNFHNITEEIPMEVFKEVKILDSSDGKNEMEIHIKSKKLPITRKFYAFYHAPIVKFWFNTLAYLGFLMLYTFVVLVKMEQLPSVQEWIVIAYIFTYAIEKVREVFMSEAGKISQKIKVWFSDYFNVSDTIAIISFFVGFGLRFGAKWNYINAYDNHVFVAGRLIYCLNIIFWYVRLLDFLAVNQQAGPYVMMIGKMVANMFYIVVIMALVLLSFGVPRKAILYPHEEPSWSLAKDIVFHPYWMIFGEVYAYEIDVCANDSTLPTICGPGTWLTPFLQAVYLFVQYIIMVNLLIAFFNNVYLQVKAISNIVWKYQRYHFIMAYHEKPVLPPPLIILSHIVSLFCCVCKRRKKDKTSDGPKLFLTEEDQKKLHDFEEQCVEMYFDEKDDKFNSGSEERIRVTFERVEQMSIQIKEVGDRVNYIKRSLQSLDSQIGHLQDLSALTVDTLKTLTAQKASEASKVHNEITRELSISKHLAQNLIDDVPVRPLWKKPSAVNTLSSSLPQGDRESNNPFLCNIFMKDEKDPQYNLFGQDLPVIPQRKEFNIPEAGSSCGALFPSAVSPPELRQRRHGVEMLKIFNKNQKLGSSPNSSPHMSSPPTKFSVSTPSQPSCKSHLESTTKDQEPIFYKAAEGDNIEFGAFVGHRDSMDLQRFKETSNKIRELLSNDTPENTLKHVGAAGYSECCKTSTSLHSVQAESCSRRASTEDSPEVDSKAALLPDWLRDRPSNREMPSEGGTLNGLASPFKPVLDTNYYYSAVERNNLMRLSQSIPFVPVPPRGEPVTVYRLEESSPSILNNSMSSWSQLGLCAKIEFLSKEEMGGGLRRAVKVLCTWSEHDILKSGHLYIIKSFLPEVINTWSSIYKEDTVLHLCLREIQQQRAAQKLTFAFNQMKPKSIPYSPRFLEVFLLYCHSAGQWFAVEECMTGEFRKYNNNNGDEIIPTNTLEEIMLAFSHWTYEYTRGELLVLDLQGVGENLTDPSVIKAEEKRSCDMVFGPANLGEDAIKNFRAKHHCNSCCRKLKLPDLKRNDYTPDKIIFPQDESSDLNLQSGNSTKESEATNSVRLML", "UniProt P15116": "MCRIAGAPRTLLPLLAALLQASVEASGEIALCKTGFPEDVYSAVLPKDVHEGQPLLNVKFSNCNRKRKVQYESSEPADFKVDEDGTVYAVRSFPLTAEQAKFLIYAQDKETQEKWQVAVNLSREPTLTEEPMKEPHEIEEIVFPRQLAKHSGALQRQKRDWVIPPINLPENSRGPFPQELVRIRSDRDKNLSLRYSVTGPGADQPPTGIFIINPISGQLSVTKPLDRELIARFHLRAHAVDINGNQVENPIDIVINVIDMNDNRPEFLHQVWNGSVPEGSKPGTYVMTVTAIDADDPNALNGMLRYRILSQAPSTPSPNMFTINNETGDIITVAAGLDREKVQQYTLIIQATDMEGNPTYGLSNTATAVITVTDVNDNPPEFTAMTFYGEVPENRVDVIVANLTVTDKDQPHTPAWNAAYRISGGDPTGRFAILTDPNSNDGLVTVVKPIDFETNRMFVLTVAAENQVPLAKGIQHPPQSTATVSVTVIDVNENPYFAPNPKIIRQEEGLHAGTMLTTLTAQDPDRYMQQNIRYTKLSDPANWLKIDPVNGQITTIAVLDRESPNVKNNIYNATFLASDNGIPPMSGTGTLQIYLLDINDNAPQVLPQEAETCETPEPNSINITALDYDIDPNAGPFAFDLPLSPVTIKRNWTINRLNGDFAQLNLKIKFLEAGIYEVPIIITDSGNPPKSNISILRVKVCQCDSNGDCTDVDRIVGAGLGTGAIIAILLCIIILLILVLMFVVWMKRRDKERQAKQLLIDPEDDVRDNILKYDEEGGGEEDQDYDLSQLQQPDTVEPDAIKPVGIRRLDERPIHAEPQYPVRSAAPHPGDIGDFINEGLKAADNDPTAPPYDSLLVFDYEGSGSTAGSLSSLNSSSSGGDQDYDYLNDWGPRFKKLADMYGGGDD"}, "source": "paper PMC5826258", "key": {"USH1C (harmonin)": {"target": "T1, USH1C (harmonin) (UniProt Q9ES64)", "T1 sequence": "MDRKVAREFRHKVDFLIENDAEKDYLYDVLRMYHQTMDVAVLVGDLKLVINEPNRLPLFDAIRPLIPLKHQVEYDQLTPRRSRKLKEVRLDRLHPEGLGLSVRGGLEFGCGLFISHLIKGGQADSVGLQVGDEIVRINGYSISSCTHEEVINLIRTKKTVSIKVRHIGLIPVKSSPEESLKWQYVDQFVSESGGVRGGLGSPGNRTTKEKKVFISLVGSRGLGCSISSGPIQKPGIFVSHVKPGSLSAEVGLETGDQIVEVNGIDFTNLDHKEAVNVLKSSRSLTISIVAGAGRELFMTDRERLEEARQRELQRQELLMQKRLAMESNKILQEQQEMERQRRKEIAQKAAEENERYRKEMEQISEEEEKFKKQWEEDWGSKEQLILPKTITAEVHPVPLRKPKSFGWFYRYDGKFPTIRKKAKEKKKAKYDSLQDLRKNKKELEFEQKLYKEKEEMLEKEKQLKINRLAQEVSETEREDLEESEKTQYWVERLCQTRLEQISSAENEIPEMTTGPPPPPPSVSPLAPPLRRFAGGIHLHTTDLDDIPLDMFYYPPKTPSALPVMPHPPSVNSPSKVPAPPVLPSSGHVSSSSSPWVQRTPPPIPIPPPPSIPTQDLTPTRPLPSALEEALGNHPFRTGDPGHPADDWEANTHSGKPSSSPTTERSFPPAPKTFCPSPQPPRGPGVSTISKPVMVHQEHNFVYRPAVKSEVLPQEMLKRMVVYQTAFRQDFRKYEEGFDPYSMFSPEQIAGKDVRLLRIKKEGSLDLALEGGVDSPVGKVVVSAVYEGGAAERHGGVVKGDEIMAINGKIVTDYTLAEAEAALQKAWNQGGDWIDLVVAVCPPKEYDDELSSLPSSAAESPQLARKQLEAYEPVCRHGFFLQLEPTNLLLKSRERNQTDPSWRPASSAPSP", "assay": "two-hybrid; yeast two-hybrid with USH1C as the bait; conducted as described (Zhao et al., 2014)"}, "[1]": {"target": "HA-tagged TRPM6 (mouse, full length, canonical splice form) (mouse) (UniProt Q8CIR4)", "assay": "co-IP; HEK293T cells; HA-TRPM6 and HA-TRPM7 together (printed TRPM6/7) with PCDH15, its deletions, chimeras or CDH2; anti-HA agarose; blot with anti-PCDH15 or CDH2 antibody"}, "[2]": {"target": "HA-tagged TRPM7 (mouse, full length, canonical splice form) (mouse) (UniProt Q923J1)", "assay": "co-IP; HEK293T cells; HA-TRPM6 and HA-TRPM7 together (printed TRPM6/7) with PCDH15, its deletions, chimeras or CDH2; anti-HA agarose; blot with anti-PCDH15 or CDH2 antibody"}}, "note": "Results are given in words; binding and its absence hold for the method and conditions named. For some of these results: Binding can be weak; no strength is given. For some of these results: Binding seen in cells or lysates may run through a third protein."}
{"substance": "TRPV6, the 33 terminal amino acids with the C-terminal seven amino acids deleted (domain or fragment)", "values": [{"measurement": "binding", "setting": "USH1C (harmonin)", "result": "no binding"}]}
{"substance": "TRPV6, the 33 terminal amino acids with the PDZ-binding interface (PBI) (domain or fragment)", "values": [{"measurement": "binding", "setting": "USH1C (harmonin)", "result": "binds"}]}
{"substance": "CDH2 (N-cadherin) (from UniProt P15116)", "values": [{"measurement": "binding", "setting": "[1]", "result": "no binding"}, {"measurement": "binding", "setting": "[2]", "result": "no binding"}]}
